Results from the supplement of paper PMC4604168 (melanoma cell lines).
This is one part of the list. Many values rest on one well or one pass, so single values are uncertain.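 The apoptosis fraction was the count of cleaved-PARP antibody-stained nuclei relative to all DNA-stained nuclei, imaged in 1,536-well plates. Screening doses were set so most cells survived, and baseline and induced cleaved-PARP levels vary greatly across cell lines.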

Each molecule was assayed on CBRC016 (line from a melanoma biopsy) (assay: cleaved PARP positive nuclei fraction relative to DMSO control; melanoma cells; higher = more apoptosis). Details: library dose: low library concentration; 72 h.
With C=C(c1ccc(C(=O)O)cc1)c1cc2c(cc1C)C(C)(C)CCC2(C)C [Bexarotene] + CCc1ccc(CCOc2ccc(CC3SC(=O)NC3=O)cc2)nc1 [pioglitazone] (first compound 2 µM, partner dose 2 µM) the “cleaved PARP positive nuclei fraction” value was 107%.
With C=C(c1ccc(C(=O)O)cc1)c1cc2c(cc1C)C(C)(C)CCC2(C)C [Bexarotene] + c1cc(-c2cnn3cc(-c4ccc(OCCN5CCCCC5)cc4)cnc23)ccn1 [Dorsomorphin] (first compound 2 µM, partner dose 0.4 µM) the “cleaved PARP positive nuclei fraction” value was 102%.
CS(=O)(=O)CCNCc1ccc(-c2ccc3ncnc(Nc4ccc(OCc5cccc(F)c5)c(Cl)c4)c3c2)o1 [lapatinib] + COc1cc(N2CCC(N3CCN(C)CC3)CC2)ccc1Nc1ncc(Cl)c(Nc2ccccc2S(=O)(=O)C(C)C)n1 [NVP-TAE684] (first compound 0.8 µM, partner dose 0.08 µM) was tested, and the “cleaved PARP positive nuclei fraction” value was 56.7%.
In the case of CNC(=O)c1cc(Oc2ccc(NC(=O)Nc3ccc(Cl)c(C(F)(F)F)c3)cc2)ccn1 [sorafenib] + CCN(CC)CCCCNc1ncc2cc(-c3cc(OC)cc(OC)c3)c(NC(=O)NC(C)(C)C)nc2n1 [PD173074] (first compound 0.4 µM, partner dose 0.1 µM), the “cleaved PARP positive nuclei fraction” value is reported as 138%.
In the case of CO[C@H]1C[C@@H]2CC[C@@H](C)[C@@](O)(O2)C(=O)C(=O)N2CCCC[C@H]2C(=O)O[C@H]([C@H](C)C[C@@H]2CC[C@@H](OCCO)[C@H](OC)C2)CC(=O)[C@H](C)/C=C(\C)[C@@H](O)[C@@H](OC)C(=O)[C@H](C)C[C@H](C)/C=C/C=C/C=C/1C [everolimus] + O=C1NC(=O)/C(=C/c2ccc(-c3ccc(F)cc3O)o2)S1 [AS252424] (first compound 0.02 µM, partner dose 1 µM), the “cleaved PARP positive nuclei fraction” value is reported as 147%.

These molecules were tested on CBRC017 (line from a melanoma biopsy) in the same assay as above. Details: library dose: low library concentration; 72 h.
Nc1ccn([C@@H]2O[C@H](CO)[C@@H](O)C2(F)F)c(=O)n1 [gemcitabine] + O=S(=O)(c1ccccc1)N(CC(F)(F)F)c1ccc(C(O)(C(F)(F)F)C(F)(F)F)cc1 [T0901317] (first compound 0.0004 µM, partner dose 1.4 µM) was tested, and the “cleaved PARP positive nuclei fraction” value was 124%.
With Nc1ncn([C@H]2C[C@H](O)[C@@H](CO)O2)c(=O)n1 [decitabine] + O=C(Nc1ccccc1)c1cc([N+](=O)[O-])ccc1Cl [GW9662] (first compound 0.1 µM, partner dose 2 µM) the “cleaved PARP positive nuclei fraction” value was 119%.
With Nc1nc(F)nc2c1ncn2[C@@H]1O[C@H](CO)[C@@H](O)[C@@H]1O [fludarabine] + Cn1cc(/C=C2\C(=O)Nc3cccnc32)c2ccccc21 [GW441756] (first compound 0.2 µM, partner dose 0.4 µM) the “cleaved PARP positive nuclei fraction” value was 94.6%.
In the case of Nc1ccn([C@@H]2O[C@H](CO)[C@@H](O)C2(F)F)c(=O)n1 [gemcitabine] + CCN(CC)CCCCNc1ncc2cc(-c3cc(OC)cc(OC)c3)c(NC(=O)NC(C)(C)C)nc2n1 [PD173074] (first compound 0.0004 µM, partner dose 0.1 µM), the “cleaved PARP positive nuclei fraction” value is reported as 190%.
CCCS(=O)(=O)Nc1ccc(F)c(C(=O)c2c[nH]c3ncc(Cl)cc23)c1F + COc1ccc(COc2ccc(Cc3cnc(N)nc3N)cc2OC)cc1 [GW2580] (first compound 0.08 µM, partner dose 1 µM) was tested, and the “cleaved PARP positive nuclei fraction” value was 93.6%.
With Nc1ccn([C@@H]2O[C@H](CO)[C@@H](O)C2(F)F)c(=O)n1 [gemcitabine] + CCc1ccc(CCOc2ccc(CC3SC(=O)NC3=O)cc2)nc1 [pioglitazone] (first compound 0.0004 µM, partner dose 2 µM) the “cleaved PARP positive nuclei fraction” value was 105%.
For Nc1ncn([C@H]2C[C@H](O)[C@@H](CO)O2)c(=O)n1 [decitabine] + Oc1cc(-c2nc(-c3ccccc3)[nH]c2-c2ccncc2)ccc1Cl [L779450] (first compound 0.1 µM, partner dose 0.2 µM), the “cleaved PARP positive nuclei fraction” value was 89%.
With CNC(=O)c1cc(Oc2ccc(NC(=O)Nc3ccc(Cl)c(C(F)(F)F)c3)cc2)ccn1 [sorafenib] + Cc1cc([N+](=O)[O-])ccc1NS(=O)(=O)c1cc(Cl)ccc1Cl [FH535] (first compound 0.4 µM, partner dose 1 µM) the “cleaved PARP positive nuclei fraction” value was 335%.
In the case of O=C(O)c1ccc2c(c1)nc(Nc1cccc(Cl)c1)c1ccncc12 + N#Cc1c(O)c2c(-c3ccc(-c4ccccc4O)cc3)csc2[nH]c1=O [A769662] (first compound 0.4 µM, partner dose 2 µM), the “cleaved PARP positive nuclei fraction” value is reported as 103%.
For Nc1ccn([C@@H]2O[C@H](CO)[C@@H](O)C2(F)F)c(=O)n1 [gemcitabine] + COc1ccc(COc2ccc(Cc3cnc(N)nc3N)cc2OC)cc1 [GW2580] (first compound 0.0004 µM, partner dose 1 µM), the “cleaved PARP positive nuclei fraction” value was 108%.
With Nc1ncn([C@H]2C[C@H](O)[C@@H](CO)O2)c(=O)n1 [decitabine] + O=C1NC(=O)/C(=C/c2ccc(-c3ccc(F)cc3O)o2)S1 [AS252424] (first compound 0.1 µM, partner dose 1 µM) the “cleaved PARP positive nuclei fraction” value was 144%.
CCCS(=O)(=O)Nc1ccc(F)c(C(=O)c2c[nH]c3ncc(Cl)cc23)c1F + Cn1cc(/C=C2\C(=O)Nc3cccnc32)c2ccccc21 [GW441756] (first compound 0.08 µM, partner dose 0.4 µM) was tested, and the “cleaved PARP positive nuclei fraction” value was 122%.
For Cc1cc(Nc2cc(N3CCN(C)CC3)nc(/C=C/c3ccccc3)n2)n[nH]1 + O=c1cc(-c2cccc3c2Sc2ccccc2S3)oc(N2CCOCC2)c1 [KU55933] (first compound 0.04 µM, partner dose 1 µM), the “cleaved PARP positive nuclei fraction” value was 81.3%.
For Cn1c(=O)n(-c2ccc(C(C)(C)C#N)cc2)c2c3cc(-c4cnc5ccccc5c4)ccc3ncc21 + COc1cc2ncnc(Nc3ccc(Oc4ccccc4)cc3)c2cc1OC [SrcI1] (first compound 0.004 µM, partner dose 2 µM), the “cleaved PARP positive nuclei fraction” value was 79%.
Cc1cc(Nc2cc(N3CCN(C)CC3)nc(/C=C/c3ccccc3)n2)n[nH]1 + O=S(=O)(c1ccccc1)N(CC(F)(F)F)c1ccc(C(O)(C(F)(F)F)C(F)(F)F)cc1 [T0901317] (first compound 0.04 µM, partner dose 1.4 µM) was tested, and the “cleaved PARP positive nuclei fraction” value was 121%.
For CCCS(=O)(=O)Nc1ccc(F)c(C(=O)c2c[nH]c3ncc(Cl)cc23)c1F + O=C1NC(=O)/C(=C/c2ccc(-c3ccc(F)cc3O)o2)S1 [AS252424] (first compound 0.08 µM, partner dose 1 µM), the “cleaved PARP positive nuclei fraction” value was 87.5%.
In the case of Cn1c(=O)n(-c2ccc(C(C)(C)C#N)cc2)c2c3cc(-c4cnc5ccccc5c4)ccc3ncc21 + CC(C)CCN1c2nc(Nc3cc(F)c(O)c(F)c3)ncc2N(C)C(=O)C1C [BID1870] (first compound 0.004 µM, partner dose 0.2 µM), the “cleaved PARP positive nuclei fraction” value is reported as 77.9%.
With CN1CCN(c2ccc3nc(-c4c(N)c5c(F)cccc5[nH]c4=O)[nH]c3c2)CC1 [Dovitinib] + Oc1cc(-c2nc(-c3ccccc3)[nH]c2-c2ccncc2)ccc1Cl [L779450] (first compound 0.1 µM, partner dose 0.2 µM) the “cleaved PARP positive nuclei fraction” value was 88.3%.
With Nc1nc(F)nc2c1ncn2[C@@H]1O[C@H](CO)[C@@H](O)[C@@H]1O [fludarabine] + COc1cc(N2CCC(N3CCN(C)CC3)CC2)ccc1Nc1ncc(Cl)c(Nc2ccccc2S(=O)(=O)C(C)C)n1 [NVP-TAE684] (first compound 0.2 µM, partner dose 0.08 µM) the “cleaved PARP positive nuclei fraction” value was 91.8%.
With Nc1ncn([C@H]2C[C@H](O)[C@@H](CO)O2)c(=O)n1 [decitabine] + COc1ccc(-c2ccc3c(N4CCOCC4)nc(N4C[C@@H](C)O[C@@H](C)C4)nc3n2)cc1CO [KU0063794] (first compound 0.1 µM, partner dose 0.02 µM) the “cleaved PARP positive nuclei fraction” value was 92.6%.
With CCCS(=O)(=O)Nc1ccc(F)c(C(=O)c2c[nH]c3ncc(Cl)cc23)c1F + Oc1cc(-c2nc(-c3ccccc3)[nH]c2-c2ccncc2)ccc1Cl [L779450] (first compound 0.08 µM, partner dose 0.2 µM) the “cleaved PARP positive nuclei fraction” value was 87%.
With C=C(c1ccc(C(=O)O)cc1)c1cc2c(cc1C)C(C)(C)CCC2(C)C [Bexarotene] + CCCCCCCCCCCC1=C(O)C(=O)C=C(O)C1=O [Embelin] (first compound 2 µM, partner dose 1.2 µM) the “cleaved PARP positive nuclei fraction” value was 123%.
In the case of O=C(O)c1ccc2c(c1)nc(Nc1cccc(Cl)c1)c1ccncc12 + Oc1nc(-c2ccc(C(F)(F)F)cc2)nc2c1CSCC2 [XAV939] (first compound 0.4 µM, partner dose 2 µM), the “cleaved PARP positive nuclei fraction” value is reported as 118%.
C=C(c1ccc(C(=O)O)cc1)c1cc2c(cc1C)C(C)(C)CCC2(C)C [Bexarotene] + COC(=O)c1sccc1S(=O)(=O)Nc1ccc(Nc2ccccc2)cc1OC [GSK0660] (first compound 2 µM, partner dose 1 µM) was tested, and the “cleaved PARP positive nuclei fraction” value was 236%.
With Nc1nc(F)nc2c1ncn2[C@@H]1O[C@H](CO)[C@@H](O)[C@@H]1O [fludarabine] + COc1ccc2c(c1)CCC1C2CCC2(C)C(NCCCCCCN3C(=O)C=CC3=O)CCC12 [U73122] (first compound 0.2 µM, partner dose 0.4 µM) the “cleaved PARP positive nuclei fraction” value was 103%.
O=C(O)[C@@H]1[O][Sb](=[O])([O][Sb]2(=[O])[O][C@H]([C@H](O)CO)[C@H](O)[C@H](C(=O)O)[O]2)[O][C@H]([C@H](O)CO)[C@@H]1O (stereo partly specified) [stibogluconate] + O=C(O)C(=O)Nc1sc2c(c1C(=O)O)CCNC2 [TCS401] (first compound 2 µM, partner dose 1.66667 µM) was tested, and the “cleaved PARP positive nuclei fraction” value was 175%.
